One experiment has as its system En-1. Description: En-1 mRNA expression by qPCR in primary ventral midbrain cultures. The conditions noted are these: Mus musculus, 24 h, read-out: Fold Increase in En-1 Expression. In general terms: In qPCR the cycle at which signal appears reflects the starting amount.
The test system of the next experiment is FoxA2. Put plainly: FoxA2 mRNA expression by qPCR in primary ventral midbrain cultures. The conditions noted are these: Mus musculus, 24 h, read-out: Fold Increase in FoxA2 Expression.

Consider `Nc1nc2ccc(OC(F)(F)F)cc2s1` [Riluzole], for which the figures for the fold induction at 10 µM in the experiment on En-1 and with FoxA2 were 6.2 and 25.9, respectively.

For the origin of these results see patent US20130261165A1, “PREVENTION AND TREATMENT OF DISEASES CHARACTERIZED BY MESENCEPHALIC DOPAMINERGIC NEURON CELL DEATH” (THE MCLEAN HOSPITAL CORPORATION, priority 2010, published 2013).
